Reference: doi:10.1101/2020.10.02.323576
No constants are given. Whether binding was seen depends on the method and setting. In cells and extracts the contact can be indirect. Some results given as binding are weak or reduced against the parent protein; the word gives no strength. For some of these results: Where a sequence is shown, tags or fusion partners need not be part of it.

The chains behind the UniProt entries cited, without tags or fusion partners. Where a name states a change or a piece, a line headed by the entry shows the natural chain unless it says otherwise.
UniProt Q9BY78: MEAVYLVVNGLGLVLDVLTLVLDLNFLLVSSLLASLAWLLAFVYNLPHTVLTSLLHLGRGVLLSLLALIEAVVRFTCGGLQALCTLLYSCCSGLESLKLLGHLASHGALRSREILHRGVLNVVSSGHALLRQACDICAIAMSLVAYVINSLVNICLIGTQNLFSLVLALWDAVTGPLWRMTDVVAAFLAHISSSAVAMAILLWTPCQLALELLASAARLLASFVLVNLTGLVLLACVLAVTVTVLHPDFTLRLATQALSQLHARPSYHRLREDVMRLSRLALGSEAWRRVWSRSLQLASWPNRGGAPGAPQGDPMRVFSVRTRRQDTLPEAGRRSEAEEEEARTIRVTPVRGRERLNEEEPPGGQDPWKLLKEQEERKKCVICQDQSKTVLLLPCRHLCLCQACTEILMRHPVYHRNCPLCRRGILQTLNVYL

T1: GFP-UBE2J2 (UniProt Q8N2K1)
T1 sequence: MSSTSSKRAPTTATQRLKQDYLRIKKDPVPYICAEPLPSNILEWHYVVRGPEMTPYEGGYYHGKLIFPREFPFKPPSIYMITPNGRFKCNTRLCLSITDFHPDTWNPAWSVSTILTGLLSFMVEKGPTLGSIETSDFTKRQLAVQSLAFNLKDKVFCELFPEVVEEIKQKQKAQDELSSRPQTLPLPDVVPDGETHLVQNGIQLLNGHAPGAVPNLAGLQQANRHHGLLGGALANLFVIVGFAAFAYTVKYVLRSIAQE

T2: GFP-UBE2J1 wild type (UniProt Q9Y385)
T2 sequence: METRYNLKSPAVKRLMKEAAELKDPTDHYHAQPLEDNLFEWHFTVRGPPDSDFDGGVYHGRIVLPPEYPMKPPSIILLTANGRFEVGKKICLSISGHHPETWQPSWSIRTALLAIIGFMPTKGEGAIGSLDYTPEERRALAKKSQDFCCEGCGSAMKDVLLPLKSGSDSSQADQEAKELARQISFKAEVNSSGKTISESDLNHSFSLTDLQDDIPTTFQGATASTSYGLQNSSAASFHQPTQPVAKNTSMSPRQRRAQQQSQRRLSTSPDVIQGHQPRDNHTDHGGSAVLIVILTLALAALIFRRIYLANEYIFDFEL


Key:
Assay in all cases: co-IP
GFP-UBE2J2 = molecular target: T1, GFP-UBE2J2
GFP-UBE2J1 wild type = molecular target: T2, GFP-UBE2J1 wild type
RFP-RNF26 wild type = RFP-RNF26 wild type (UniProt Q9BY78)
RFP-RNF26 I382R = RFP-RNF26 I382R (UniProt Q9BY78)

binding (GFP-UBE2J2) | binding (GFP-UBE2J1 wild type) | binding (RFP-RNF26 wild type) | binding (RFP-RNF26 I382R) | Molecule
binds | binds |  |  | RFP-RNF26 wild type (from UniProt Q9BY78 1-433) (enzyme)
 |  | binds | binds | endogenous UBE2J1 (enzyme, UniProt Q9Y385 1-318) METRYNLKSPAVKRLMKEAAELKDPTDHYHAQPLEDNLFEWHFTVRGPPDSDFDGGVYHGRIVLPPEYPMKPPSIILLTANGRFEVGKKICLSISGHHPETWQPSWSIRTALLAIIGFMPTKGEGAIGSLDYTPEERRALAKKSQDFCCEGCGSAMKDVLLPLKSGSDSSQADQEAKELARQISFKAEVNSSGKTISESDLNHSFSLTDLQDDIPTTFQGATASTSYGLQNSSAASFHQPTQPVAKNTSMSPRQRRAQQQSQRRLSTSPDVIQGHQPRDNHTDHGGSAVLIVILTLALAALIFRRIYLANEYIFDFEL
